{"source": "PubChem BioAssay AID652243 (Drosophila RNAi Screening Center, 2013)", "test": "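Fly regulators of androgen-dependent reporter output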 (primary screen)", "cells": "Drosophila S2R+ cells", "knock-down reagent": "long dsRNA against Drosophila genes", "duration": "72 h (48 h, then 24 h hormone)", "treatment": "synthetic androgen R1881 at 10 nM for 24 h", "measurement": "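Firefly light from an androgen-responsive reporter and Renilla control light per well, raw and unnormalised, for each of two replicates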", "scale": "firefly reporter light: higher = more light from androgen-responsive reporter; Renilla control light: higher = more constitutive control signal (cell number, transfection)", "active means": "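Hit when the log firefly-to-Renilla ratio dropped or increased by a fixed fold versus the mean of GFP or LacZ controls across duplicate plates; lowering cut given as 1.5 and as 3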", "calls": "active = hit: reporter lowered or raised; inactive = no hit", "note": "The screen tested about 24,000 reagents; shown is an unselected part of those with a known target gene and a result. Over the whole deposit, 246 (1%) are marked active. 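Plates not normalised; calls are printed but the firefly/Renilla ratio behind them is not deposited; fold cut for lowering reported inconsistently.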 Raw values are not corrected between plates. The record does not give: the amount of reagent."}
{"target":"intr","amplicon":"DRSC14528","firefly reporter light, replicate 1":70569,"firefly reporter light, replicate 2":1.25e5,"Renilla control light, replicate 1":4.53e5,"Renilla control light, replicate 2":7.84e5,"call":"inactive"}
{"target":"Obp58d","amplicon":"DRSC04162","firefly reporter light, replicate 1":2.27e5,"firefly reporter light, replicate 2":2.13e5,"Renilla control light, replicate 1":1.77e6,"Renilla control light, replicate 2":1.61e6,"call":"inactive"}
{"target":"I-3","amplicon":"DRSC20479","firefly reporter light, replicate 1":1.60e5,"firefly reporter light, replicate 2":1.33e5,"Renilla control light, replicate 1":6.80e5,"Renilla control light, replicate 2":5.10e5,"call":"inactive"}
{"target":"Tsp42Ep","amplicon":"DRSC06871","firefly reporter light, replicate 1":1.03e6,"firefly reporter light, replicate 2":9.52e5,"Renilla control light, replicate 1":1.43e6,"Renilla control light, replicate 2":1.79e6,"call":"inactive"}
{"target":"Pex13","amplicon":"DRSC06877","firefly reporter light, replicate 1":8.01e5,"firefly reporter light, replicate 2":7.50e5,"Renilla control light, replicate 1":1.75e6,"Renilla control light, replicate 2":2.36e6,"call":"inactive"}
{"target":"Fer2LCH","amplicon":"DRSC16672","firefly reporter light, replicate 1":1.79e5,"firefly reporter light, replicate 2":1.79e5,"Renilla control light, replicate 1":2.20e6,"Renilla control light, replicate 2":2.85e6,"call":"inactive"}
{"target":"Fer2LCH","amplicon":"DRSC29169","firefly reporter light, replicate 1":4.50e5,"firefly reporter light, replicate 2":3.45e5,"Renilla control light, replicate 1":1.10e6,"Renilla control light, replicate 2":1.01e6,"call":"inactive"}
{"target":"CG5909","amplicon":"DRSC15914","firefly reporter light, replicate 1":1.04e5,"firefly reporter light, replicate 2":1.41e5,"Renilla control light, replicate 1":1.79e6,"Renilla control light, replicate 2":2.37e6,"call":"inactive"}
{"target":"CG5909","amplicon":"DRSC27750","firefly reporter light, replicate 1":5.34e5,"firefly reporter light, replicate 2":5.54e5,"Renilla control light, replicate 1":8.30e5,"Renilla control light, replicate 2":9.13e5,"call":"inactive"}

2 neighbouring reagents already listed, quoted:
{"target":"Fer2LCH","amplicon":"DRSC29169","firefly reporter light, replicate 1":4.50e5,"firefly reporter light, replicate 2":3.45e5,"Renilla control light, replicate 1":1.10e6,"Renilla control light, replicate 2":1.01e6,"call":"inactive"}
{"target":"CG5909","amplicon":"DRSC15914","firefly reporter light, replicate 1":1.04e5,"firefly reporter light, replicate 2":1.41e5,"Renilla control light, replicate 1":1.79e6,"Renilla control light, replicate 2":2.37e6,"call":"inactive"}

Continued:
{"target":"CG5043","amplicon":"DRSC02805","firefly reporter light, replicate 1":1.12e5,"firefly reporter light, replicate 2":94608,"Renilla control light, replicate 1":1.39e6,"Renilla control light, replicate 2":1.15e6,"call":"inactive"}
{"target":"CG5043","amplicon":"DRSC25720","firefly reporter light, replicate 1":5.08e5,"firefly reporter light, replicate 2":7.02e5,"Renilla control light, replicate 1":7.12e5,"Renilla control light, replicate 2":8.01e5,"call":"inactive"}
{"target":"BNIP3","amplicon":"DRSC11761","firefly reporter light, replicate 1":3.14e5,"firefly reporter light, replicate 2":3.14e5,"Renilla control light, replicate 1":3.11e6,"Renilla control light, replicate 2":2.93e6,"call":"inactive"}
{"target":"ttm2","amplicon":"DRSC08268","firefly reporter light, replicate 1":89977,"firefly reporter light, replicate 2":79620,"Renilla control light, replicate 1":1.35e6,"Renilla control light, replicate 2":1.24e6,"call":"inactive"}
{"target":"CG13616","amplicon":"DRSC14619","firefly reporter light, replicate 1":1.92e5,"firefly reporter light, replicate 2":2.40e5,"Renilla control light, replicate 1":1.85e6,"Renilla control light, replicate 2":2.68e6,"call":"inactive"}
